Data as given in PubChem BioAssay AID1259254 (NCATS, 2017).
The whole screen tested about 59,000 reagents; this is an unselected part. Of all reagents, about 1,550 (2.6%) were called active. 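G2 share is only a proxy for re-replication; each gene was hit by three separate siRNAs, and active genes were retested.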 Entries without a mark were called inactive. Not all columns of the deposit are shown. Reagent sequences are not shown. Not stated in the record: the amount of reagent.

Aim: 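Finding genes that stop cells copying their DNA twice in one cycle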 (primary screen)
Cells: human HCT116 colorectal cancer cells
Reagents: single siRNA against human genes
Duration: 3 days
Detection: 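Imaged Hoechst DNA stain sorts each cell into a cycle phase by DNA amount; per plate, G2 fraction set to 0% for non-targeting and 100% for GMNN siRNA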
Scale: G2 robust z-score and G2 cells, % of GMNN control: higher = more G2 cells, more excess DNA replication
Rule for the call: 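An siRNA counts as active if its G2 robust z-score lies at least 5 MADs above the screen median; here such calls match roughly 38% of GMNN control or more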

{"gene knocked down": "ANKZF1 (ankyrin repeat and zinc finger peptidyl tRNA hydrolase 1)", "PubChem SID": "SID160743034", "G2 robust z-score": 1.55, "G2 cells, % of GMNN control": 13.8}
{"gene knocked down": "ANKZF1 (ankyrin repeat and zinc finger peptidyl tRNA hydrolase 1)", "PubChem SID": "SID160743036", "G2 robust z-score": -0.604, "G2 cells, % of GMNN control": -1.28}
{"gene knocked down": "ANKZF1 (ankyrin repeat and zinc finger peptidyl tRNA hydrolase 1)", "PubChem SID": "SID160743037", "G2 robust z-score": 0.768, "G2 cells, % of GMNN control": 8.37}
{"gene knocked down": "TBCK (TBC1 domain containing kinase)", "PubChem SID": "SID160754529", "G2 robust z-score": 4.77, "G2 cells, % of GMNN control": 36.5}
{"gene knocked down": "TBCK (TBC1 domain containing kinase)", "PubChem SID": "SID160754530", "G2 robust z-score": 4.44, "G2 cells, % of GMNN control": 34.2}
{"gene knocked down": "TBCK (TBC1 domain containing kinase)", "PubChem SID": "SID160754531", "G2 robust z-score": -0.716, "G2 cells, % of GMNN control": -2.07}
{"gene knocked down": "B3GNT6", "PubChem SID": "SID160760542", "G2 robust z-score": -0.89, "G2 cells, % of GMNN control": -3.29}
{"gene knocked down": "B3GNT6", "PubChem SID": "SID160760544", "G2 robust z-score": 0.475, "G2 cells, % of GMNN control": 6.31}
{"gene knocked down": "B3GNT6", "PubChem SID": "SID160760545", "G2 robust z-score": 1.42, "G2 cells, % of GMNN control": 12.9}
{"gene knocked down": "RPL36AL (ribosomal protein L36a like)", "PubChem SID": "SID160716101", "G2 robust z-score": 0.0606, "G2 cells, % of GMNN control": 3.39}
{"gene knocked down": "RPL36AL (ribosomal protein L36a like)", "PubChem SID": "SID160716102", "G2 robust z-score": -0.152, "G2 cells, % of GMNN control": 1.9}
{"gene knocked down": "RPL36AL (ribosomal protein L36a like)", "PubChem SID": "SID160724035", "G2 robust z-score": 0.956, "G2 cells, % of GMNN control": 9.7}
{"gene knocked down": "KLHL5 (kelch like family member 5)", "PubChem SID": "SID160740018", "G2 robust z-score": -1.29, "G2 cells, % of GMNN control": -6.14}
{"gene knocked down": "KLHL5 (kelch like family member 5)", "PubChem SID": "SID160740019", "G2 robust z-score": 1.48, "G2 cells, % of GMNN control": 13.4}
{"gene knocked down": "KLHL5 (kelch like family member 5)", "PubChem SID": "SID160740020", "G2 robust z-score": -0.488, "G2 cells, % of GMNN control": -0.466}
{"gene knocked down": "PLOD2 (procollagen-lysine,2-oxoglutarate 5-dioxygenase 2)", "PubChem SID": "SID160714486", "G2 robust z-score": -0.948, "G2 cells, % of GMNN control": -3.7}
{"gene knocked down": "PLOD2 (procollagen-lysine,2-oxoglutarate 5-dioxygenase 2)", "PubChem SID": "SID160714487", "G2 robust z-score": -0.421, "G2 cells, % of GMNN control": 0.00584}
{"gene knocked down": "PLOD2 (procollagen-lysine,2-oxoglutarate 5-dioxygenase 2)", "PubChem SID": "SID160714488", "G2 robust z-score": -0.681, "G2 cells, % of GMNN control": -1.82}

Taken from above:
For “G2 cells, % of GMNN control”, B3GNT6 [SID160760542] reads -3.29
Result for KLHL5 (kelch like family member 5) [SID160740018] under “G2 cells, % of GMNN control”: -6.14
